# According to PubChem BioAssay AID485314 (National Center for Advancing Translational Sciences (NCATS), 2010):
# Out of some 340,000 compounds screened, about 4,500 (1.3%) were called active. The inconclusive results got no clear call from the source; some entries with a clear call stand among them for comparison. The call rests on the fitted dose curve; in most records, active means well fitted inhibition curve with a large enough effect; inconclusive means small, poorly fitted or top-dose-only effect, or another doubt; inactive means no such curve, though single readings can be large or run the other way. Where the call is inconclusive, the potency comes from a doubtful curve fit.
# Target: DNA polymerase beta (Homo sapiens) (UniProt P06746)
# Test: qHTS Assay for Inhibitors of DNA Polymerase Beta
# Conditions: Pol beta primer extension/strand displacement, fluorescence kinetic; activity change, negative = inhibition: at 114 µM (top of the series)
# Method in brief: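 Human Pol beta at 10 nM; strand-displacement substrate 50 nM final. Compound exposure 15 min at room temperature before start, reaction 10 min at room temperature.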
# On the % scale 0 is the no-effect control and ±100 the full control effect; potency means the concentration at half of the fitted maximal effect.
SMILES,Potency,"activity change, negative = inhibition"
Cc1ccccc1NC(=O)CSc1nnc(-c2ccco2)c(-c2ccco2)n1,active: 14.1 µM,
O=C(Nc1ccccc1C(=O)N1CCNCC1)c1ccco1,"inconclusive: 89.1 µM [inhibitor, single point]",
O=C(N/N=C/C=C\c1ccccc1[N+](=O)[O-])c1cc(-c2ccc3ccccc3c2)n[nH]1,active: 17.8 µM,
COc1ccccc1Nc1nc2c(s1)CCC2,"inconclusive: 1 µM [inhibitor, full curve, poor fit]",
Clc1ccc(CNC2CCCC2)c(Cl)c1,inactive,
O=c1c(Cc2ccc(Cl)cc2)c(O)ccn1Cc1cccc(Cl)c1,"inconclusive: 28.2 µM [inhibitor, partial curve]",
CCOC(=O)c1ccccc1NC(=O)c1nn(C)c2c1COc1ccccc1-2,"inconclusive: 89.1 µM [inhibitor, single point]",
CN(CC(=O)Nc1ccccc1Cl)C(=O)COC(=O)c1nc(Cl)c(Cl)c(Cl)c1Cl,"inconclusive: 1 µM [inhibitor, partial curve, poor fit]",
Cc1cccc(NC(=O)CSc2ccc(-c3ccco3)nn2)c1C,"inconclusive: 39.8 µM [inhibitor, single point]",
CC(C)CSc1ccccc1NC(=O)c1sc2nc(-c3ccncc3)ccc2c1N,"inconclusive: 0.398 µM [inhibitor, partial curve]",
CC(=O)c1ccc(S(=O)(=O)Nc2cccc(-n3cnnn3)c2)cc1,,inconclusive: -112% [inhibitor]
O=C(Cn1cc(S(=O)(=O)Cc2ccccc2F)c2ccccc21)NCc1ccccc1Cl,"inconclusive: 89.1 µM [inhibitor, single point]",
Cc1ccc(Nc2sc(C(=O)c3ccccc3)c(N)c2S(=O)(=O)c2ccccc2)c(C)c1,inactive,
COc1ccc(CCNC(=O)c2c(C)nn(-c3ccc(F)cc3)c2-n2cccc2)c(OC)c1OC,inactive,
CCCS(=O)(=O)N1CCCC(C(=O)c2ccccc2OC)C1 (stereo unspecified),inactive,
Cc1cc(C(=O)NNC(=O)Nc2ccccc2)no1,inactive,
COc1ccc2[nH]c3nc(SCc4nnc(-c5ccccc5)o4)nnc3c2c1,active: 22.4 µM,
C/C(=C\c1ccco1)CN1CCN(Cc2ccc(C)o2)C(CCO)C1 (stereo unspecified),"inconclusive: 79.4 µM [inhibitor, single point]",
CCC1(CC)Cc2ccccc2C2=C(C(=O)N3CCCCC3)C(=O)C(=O)N21,"inconclusive: 22.4 µM [inhibitor, single point]",
CCc1ccccc1NC(=O)Cc1ccc(-n2cccc2)cc1,"inconclusive: 25.1 µM [inhibitor, single point]",
Cc1cc(C)n(C(CC(=O)N2CCc3ccccc3C2)C(=O)O)n1 (stereo unspecified),"inconclusive: 31.6 µM [inhibitor, full curve]",
CCc1nc2c(cnn2-c2ccc(Cl)cc2)c(=O)n1-c1ccc(OC)c(Cl)c1,"inconclusive: 89.1 µM [inhibitor, single point]",
CC(C)(C)NC(=O)CN(C(=O)C1CSC(=O)C1)c1ccccc1F (stereo unspecified),"inconclusive: 20 µM [inhibitor, single point]",

SMILES,Potency,"activity change, negative = inhibition"
Cc1ccccc1CNC(=O)c1ccc(CS(=O)Cc2ccc(Cl)cc2)o1 (stereo unspecified),inactive,
O=C(c1ccc(CS(=O)Cc2ccc(Cl)cc2)o1)N1CCN(c2ccccc2)CC1 (stereo unspecified),,inconclusive: -36.9% [inhibitor]
O=c1nc(NCc2ccccc2Cl)cn[nH]1,"inconclusive: 100 µM [inhibitor, partial curve, poor fit]",
CCCC[C@@H]1CN=C(N)N1CCc1cc(C(F)(F)F)cc(C(F)(F)F)c1,,inconclusive: -33.7% [inhibitor]
O=C(CS(=O)(=O)Cc1ccccc1)Nc1nc2c(s1)CCCC2,"inconclusive: 89.1 µM [inhibitor, single point]",
CCc1ccc(CN(Cc2ccco2)C(=O)COc2ccc(Cl)cc2C)cc1,inactive,
O=C(NNC(=O)c1cc2cc3ccccc3nc2s1)c1cccc(C(F)(F)F)c1,active: 22.4 µM,
O=c1[nH]c(CS(=O)(=O)c2ccccc2)nc2ccccc12,"inconclusive: 79.4 µM [inhibitor, single point]",
CN1CCc2cccc3c2[C@@H]1Cc1ccc(O)c(O)c1-3,"inconclusive: 5.01 µM [inhibitor, full curve]",
O=C(O)c1cccc(NS(=O)(=O)c2ccc(C3CCCCC3)cc2)c1,"inconclusive: 70.8 µM [inhibitor, single point]",
O=C1NCCN1Cc1ccc(F)cc1,"inconclusive: 0.141 µM [inhibitor, full curve, poor fit]",
O=c1cc2oc3cc(O)c(O)cc3c(-c3ccccc3O)c-2cc1O,active: 39.8 µM,
COc1cc(C2C(C#N)=C(N)Oc3n[nH]c(C)c32)ccc1OC(=O)c1ccccc1 (stereo unspecified),inactive,
Cc1nn(-c2ccccc2)c(Cl)c1/C=N/NC(=O)OC(C)(C)C,inactive,
O=C(NC(=S)Nc1ccc(S(=O)(=O)Nc2ncccn2)cc1)c1ccc(Br)cc1,inactive,
O=C(CNC(=O)N1CC(=O)Nc2ccccc21)NCc1ccccc1Cl,inactive,
CCOc1ccc(N(CC(=O)N2CCN(c3ccc(F)cc3)CC2)S(=O)(=O)c2c(C)noc2C)cc1,inactive,
O=C1c2cccc3cccc(c23)C(=O)N1OS(=O)(=O)c1ccccc1,inactive,
CCCc1cc(=O)[nH]c(SCC(=O)Nc2nc3ccc(OCC)cc3s2)n1,"inconclusive: 56.2 µM [inhibitor, partial curve]",
CCN(CC)S(=O)(=O)c1cccc(C(=O)N/N=C/c2c(C)nn(-c3ccccc3)c2Cl)c1,active: 14.1 µM,
CCC/C=C(\CCC)C(NS(=O)(=O)c1ccc(C(F)(F)F)cc1)c1ccccc1 (stereo unspecified),"inconclusive: 56.2 µM [inhibitor, partial curve]",
COc1cc(NC(=O)CCc2c(C)nc3c4c(C)cc(C)nc4nn3c2C)cc(OC)c1,"inconclusive: 11.2 µM [inhibitor, partial curve, poor fit]",
Cc1ccc(CNC(=O)c2nc(S(=O)(=O)Cc3ccc(C)cc3)ncc2Cl)cc1,"inconclusive: 35.5 µM [inhibitor, full curve, poor fit]",

# Taken from above:
# Entry for `O=C(O)c1cccc(NS(=O)(=O)c2ccc(C3CCCCC3)cc2)c1` under Potency: inconclusive: 70.8 µM [inhibitor, single point]
# Entry for `O=C(NNC(=O)c1cc2cc3ccccc3nc2s1)c1cccc(C(F)(F)F)c1` under Potency: active: 22.4 µM
